Reference: publication PMC3776363
No constants are given. Whether binding was seen depends on the method and setting. In cells and extracts the contact can be indirect. These calls come from enrichment with a bait or labelling near it, and not all partners need be listed.

Chains of the proteins cited; added tags and fusions are not shown.
UniProt Q01518: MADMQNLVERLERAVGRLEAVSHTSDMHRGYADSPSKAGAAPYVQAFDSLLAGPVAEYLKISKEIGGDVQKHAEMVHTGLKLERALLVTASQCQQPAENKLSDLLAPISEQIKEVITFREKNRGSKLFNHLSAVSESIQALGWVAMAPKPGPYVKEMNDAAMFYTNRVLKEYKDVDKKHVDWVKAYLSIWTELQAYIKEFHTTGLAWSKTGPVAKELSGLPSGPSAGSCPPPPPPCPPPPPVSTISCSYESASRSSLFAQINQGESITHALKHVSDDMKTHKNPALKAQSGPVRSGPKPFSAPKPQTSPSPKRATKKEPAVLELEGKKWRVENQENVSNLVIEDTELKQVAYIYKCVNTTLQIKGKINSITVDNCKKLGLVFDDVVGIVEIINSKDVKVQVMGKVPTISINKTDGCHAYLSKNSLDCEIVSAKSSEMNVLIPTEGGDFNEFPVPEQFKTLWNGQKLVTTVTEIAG
UniProt P60228: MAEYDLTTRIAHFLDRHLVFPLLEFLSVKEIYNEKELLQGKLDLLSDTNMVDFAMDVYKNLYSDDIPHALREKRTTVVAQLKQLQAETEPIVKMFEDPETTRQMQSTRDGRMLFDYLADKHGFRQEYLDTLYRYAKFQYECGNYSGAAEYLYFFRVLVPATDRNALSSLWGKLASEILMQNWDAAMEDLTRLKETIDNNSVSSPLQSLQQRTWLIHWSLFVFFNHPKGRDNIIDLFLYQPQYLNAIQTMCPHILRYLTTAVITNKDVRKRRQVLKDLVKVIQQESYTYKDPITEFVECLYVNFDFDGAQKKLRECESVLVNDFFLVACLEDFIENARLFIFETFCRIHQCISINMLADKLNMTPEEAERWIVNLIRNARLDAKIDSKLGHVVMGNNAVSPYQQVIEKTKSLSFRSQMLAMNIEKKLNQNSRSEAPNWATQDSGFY
UniProt P04406: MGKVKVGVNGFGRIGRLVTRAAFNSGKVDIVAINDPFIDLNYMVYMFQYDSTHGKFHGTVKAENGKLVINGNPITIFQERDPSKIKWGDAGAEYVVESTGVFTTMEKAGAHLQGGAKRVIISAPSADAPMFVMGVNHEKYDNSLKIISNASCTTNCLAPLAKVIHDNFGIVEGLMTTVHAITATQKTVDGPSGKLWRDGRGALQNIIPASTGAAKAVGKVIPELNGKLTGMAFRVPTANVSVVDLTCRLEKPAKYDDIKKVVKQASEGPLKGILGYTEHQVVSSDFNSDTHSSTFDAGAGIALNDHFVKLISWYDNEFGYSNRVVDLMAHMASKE
UniProt Q06323: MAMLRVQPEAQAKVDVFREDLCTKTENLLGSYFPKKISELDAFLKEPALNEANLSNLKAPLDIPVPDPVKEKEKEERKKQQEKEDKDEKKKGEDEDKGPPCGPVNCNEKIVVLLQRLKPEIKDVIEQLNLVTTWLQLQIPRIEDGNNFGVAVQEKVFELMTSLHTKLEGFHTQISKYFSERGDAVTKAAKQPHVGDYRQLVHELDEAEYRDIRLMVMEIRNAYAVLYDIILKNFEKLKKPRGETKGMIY
UniProt P09429: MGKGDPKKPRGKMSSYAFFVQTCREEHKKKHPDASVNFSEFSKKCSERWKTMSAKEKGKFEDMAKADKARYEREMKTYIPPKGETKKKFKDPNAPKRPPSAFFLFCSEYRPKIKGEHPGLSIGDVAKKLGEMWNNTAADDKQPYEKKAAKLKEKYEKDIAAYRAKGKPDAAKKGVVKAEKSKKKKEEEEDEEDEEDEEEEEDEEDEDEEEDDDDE
UniProt P07737: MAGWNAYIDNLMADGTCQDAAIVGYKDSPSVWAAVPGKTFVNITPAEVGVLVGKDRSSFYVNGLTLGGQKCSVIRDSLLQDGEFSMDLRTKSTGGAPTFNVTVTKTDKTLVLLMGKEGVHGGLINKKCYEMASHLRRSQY
UniProt A6NMY6: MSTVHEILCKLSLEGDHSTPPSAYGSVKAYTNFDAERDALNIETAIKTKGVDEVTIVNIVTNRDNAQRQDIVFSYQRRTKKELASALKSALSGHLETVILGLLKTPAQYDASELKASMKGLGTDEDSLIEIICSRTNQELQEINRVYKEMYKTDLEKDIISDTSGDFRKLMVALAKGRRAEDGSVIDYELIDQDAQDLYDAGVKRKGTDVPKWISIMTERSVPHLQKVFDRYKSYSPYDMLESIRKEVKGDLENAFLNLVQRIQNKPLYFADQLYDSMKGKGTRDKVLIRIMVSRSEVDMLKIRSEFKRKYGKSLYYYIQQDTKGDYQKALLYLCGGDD
UniProt P63104: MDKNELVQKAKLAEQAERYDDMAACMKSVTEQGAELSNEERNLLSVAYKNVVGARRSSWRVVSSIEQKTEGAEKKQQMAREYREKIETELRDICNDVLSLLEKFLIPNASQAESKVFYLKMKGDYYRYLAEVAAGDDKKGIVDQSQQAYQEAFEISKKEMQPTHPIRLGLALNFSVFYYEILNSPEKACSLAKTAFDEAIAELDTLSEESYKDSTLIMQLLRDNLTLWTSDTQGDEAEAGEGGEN
UniProt O60812: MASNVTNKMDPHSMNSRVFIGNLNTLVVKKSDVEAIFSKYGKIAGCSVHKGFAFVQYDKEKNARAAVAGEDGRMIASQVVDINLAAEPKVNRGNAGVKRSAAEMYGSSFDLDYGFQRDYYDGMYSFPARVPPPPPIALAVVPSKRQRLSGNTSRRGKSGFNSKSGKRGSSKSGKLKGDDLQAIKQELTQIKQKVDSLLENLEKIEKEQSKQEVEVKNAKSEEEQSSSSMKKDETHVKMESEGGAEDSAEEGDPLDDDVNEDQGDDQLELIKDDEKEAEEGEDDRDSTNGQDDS

T1: Gadd45a (growth arrest and DNA damage-inducible gene) (human (endogenous in CD4+ T cells)) (UniProt P24522)
T1 sequence: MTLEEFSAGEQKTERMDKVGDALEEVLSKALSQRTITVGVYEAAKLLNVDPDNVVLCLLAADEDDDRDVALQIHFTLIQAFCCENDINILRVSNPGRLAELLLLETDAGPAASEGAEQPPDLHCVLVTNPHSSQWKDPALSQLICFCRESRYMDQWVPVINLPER

B1: Ras-related protein Rab-27B (protein, UniProt O00194 1-218)
chain: MTDGDYDYLIKLLALGDSGVGKTTFLYRYTDNKFNPKFITTVGIDFREKRVVYNAQGPNGSSGKAFKVHLQLWDTAGQERFRSLTTAFFRDAMGFLLMFDLTSQQSFLNVRNWMSQLQANAYCENPDIVLIGNKADLPDQREVNERQARELADKYGIPYFETSAATGQNVEKAVETLLDLIMKRMEQCVEKTQIPDTVNGGNSGNLDGEKPPEKKCIC
B2: Tumor necrosis factor alpha-induced protein 8-like protein 3 (protein, UniProt Q5GJ75 1-292)
chain: MGKPRQNPSTLVSTLCEAEPKGKLWVNGYAGTQGTRDATLQTRLIPLSFHLQRGKGLAAPLSALSAPRLPERPADGRVAVDAQPAARSMDSDSGEQSEGEPVTAAGPDVFSSKSLALQAQKKILSKIASKTVANMLIDDTSSEIFDELYKVTKEHTHNKKEAHKIMKDLIKVAIKIGILYRNNQFSQEELVIVEKFRKKLNQTAMTIVSFYEVEYTFDRNVLSNLLHECKDLVHELVQRHLTPRTHGRINHVFNHFADVEFLSTLYSLDGDCRPNLKRICEGINKLLDEKVL
B3: Lysozyme C (protein, UniProt P61626 19-148)
chain: KVFERCELARTLKRLGMDGYRGISLANWMCLAKWESGYNTRATNYNAGDRSTDYGIFQINSRYWCNDGKTPGAVNACHLSCSALLQDNIADAVACAKRVVRDPQGIRAWVAWRNRCQNRDVRQYVQGCGV
B4: Erythrocyte band 7 integral membrane protein (protein, UniProt P27105 1-288)
chain: MAEKRHTRDSEAQRLPDSFKDSPSKGLGPCGWILVAFSFLFTVITFPISIWMCIKIIKEYERAIIFRLGRILQGGAKGPGLFFILPCTDSFIKVDMRTISFDIPPQEILTKDSVTISVDGVVYYRVQNATLAVANITNADSATRLLAQTTLRNVLGTKNLSQILSDREEIAHNMQSTLDDATDAWGIKVERVEIKDVKLPVQLQRAMAAEAEASREARAKVIAAEGEMNASRALKEASMVITESPAALQLRYLQTLTTIAAEKNSTIVFPLPIDMLQGIIGAKHSHLG
B5: Serine/arginine-rich splicing factor 3 (protein, UniProt P84103 1-164)
chain: MHRDSCPLDCKVYVGNLGNNGNKTELERAFGYYGPLRSVWVARNPPGFAFVEFEDPRDAADAVRELDGRTLCGCRVRVELSNGEKRSRNRGPPPSWGRRPRDDYRRRSPPPRRRSPRRRSFSRSRSRSLSRDRRRERSLSRERNHKPSRSFSRSRSRSRSNERK
B6: U3 small nucleolar ribonucleoprotein protein IMP3 (protein, UniProt Q9NV31 1-184)
chain: MVRKLKFHEQKLLKQVDFLNWEVTDHNLHELRVLRRYRLQRREDYTRYNQLSRAVRELARRLRDLPERDQFRVRASAALLDKLYALGLVPTRGSLELCDFVTASSFCRRRLPTVLLKLRMAQHLQAAVAFVEQGHVRVGPDVVTDPAFLVTRSMEDFVTWVDSSKIKRHVLEYNEERDDFDLEA
B7: Isoform 1 of Ankyrin repeat and SOCS box protein 13 (protein, UniProt Q8WXK3 1-278)
chain: MEPRAADGCFLGDVGFWVERTPVHEAAQRGESLQLQQLIESGACVNQVTVDSITPLHAASLQGQARCVQLLLAAGAQVDARNIDGSTPLCDACASGSIECVKLLLSYGAKVNPPLYTASPLHEACMSGSSECVRLLIDVGANLEAHDCHFGTPLHVACAREHLDCVKVLLNAGANVNAAKLHETALHHAAKVKNVDLIEMLIEFGGNIYARDNRGKKPSDYTWSSSAPAKCFEYYEKTPLTLSQLCRVNLRKATGVRGLEKIAKLNIPPRLIDYLSYN
B8: Isoform 1 of Serine/threonine-protein phosphatase 2A 55 (protein, UniProt Q00005 1-443)
chain: MEEDIDTRKINNSFLRDHSYATEADIISTVEFNHTGELLATGDKGGRVVIFQREQESKNQVHRRGEYNVYSTFQSHEPEFDYLKSLEIEEKINKIRWLPQQNAAYFLLSTNDKTVKLWKVSERDKRPEGYNLKDEEGRLRDPATITTLRVPVLRPMDLMVEATPRRVFANAHTYHINSISVNSDYETYMSADDLRINLWNFEITNQSFNIVDIKPANMEELTEVITAAEFHPHHCNTFVYSSSKGTIRLCDMRASALCDRHTKFFEEPEDPSNRSFFSEIISSISDVKFSHSGRYIMTRDYLTVKVWDLNMENRPIETYQVHDYLRSKLCSLYENDCIFDKFECVWNGSDSVIMTGSYNNFFRMFDRNTKRDVTLEASRENSKPRAILKPRKVCVGGKRRKDEISVDSLDFSKKILHTAWHPSENIIAVAATNNLYIFQDKVN

Biological target: T1, Gadd45a (growth arrest and DNA damage-inducible gene) (human (endogenous in CD4+ T cells))
Assay: affinity purification with mass spectrometry; CD4+ T-cell lysates incubated overnight at 4°C with rabbit anti-human Gadd45a antibody or isotype-matched rabbit IgG, protein A/G PLUS-agarose beads 1 hour at 4°C; SDS-PAGE, Coomassie blue, bands of ~30, ~26 and ~55 kDa excised, LS-MS/MS

Molecule | binding
Isoform 1 of Adenylyl cyclase-associated protein 1 (from UniProt Q01518 1-475) | binds
Eukaryotic translation initiation factor 3 subunit E (from UniProt P60228 1-445) | binds
Glyceraldehyde-3-phosphate dehydrogenase (from UniProt P04406 1-335) | binds
Proteasome activator complex subunit 1 (from UniProt Q06323 1-249) | binds
High mobility group protein B1 (from UniProt P09429 1-215) | binds
Profilin-1 (from UniProt P07737 1-140) | binds
Putative annexin A2-like protein (from UniProt A6NMY6 1-339) | binds
14-3-3 protein zeta/delta (from UniProt P63104 1-245) | binds
cDNA FLJ56389, highly similar to Elongation factor 1-gamma (human (endogenous in CD4+ T cells)) | binds
Heterogeneous nuclear ribonucleoprotein C-like 1 (from UniProt O60812 1-293) | binds
B1 | binds
B2 | binds
B3 | binds
B4 | binds
B5 | binds
B6 | binds
B7 | binds
B8 | binds
